Measurements as given in the supplement of paper PMC6331611.
± gives the standard deviation of the averaged measurements. Over roughly 1,600 compounds, “normalized growth (OD600, IQM-normalized) in LPM” has its median near 1; the lowest 2% begin near 0.014. Some of the results follow.

tested on: Salmonella enterica serovar Typhimurium SL1344; test: normalized growth (OD600, IQM-normalized) in LPM (fraction of plate interquartile mean); higher = more bacterial growth (less inhibition); settings: LPM pH 5.8; 10 µM; 16 h

Compound	normalized growth
CC(C)(CO)[C@@H](O)C(=O)NCCC(=O)NCCSSCCNC(=O)CCNC(=O)[C@H](O)C(C)(C)CO	1.11 ± 0.015
C[C@H]1O[C@H](O[C@H]2[C@H](O)[C@@H](O)[C@@H](O[C@H]3[C@H](O)[C@@H](O)C(O)O[C@@H]3CO)O[C@@H]2CO)[C@H](O)[C@@H](O)[C@@H]1N[C@H]1C=C(CO)[C@@H](O)[C@H](O)[C@H]1O (stereo not given in full)	1.07 ± 0.011
O=C(O)c1cn(-c2ccc(F)cc2)c2cc(N3CCNCC3)c(F)cc2c1=O	0.0341 ± 0.0073
O=C(O)Cc1ccc(-c2ccccc2)cc1	1.07 ± 0.027
C[C@@H]1C[C@H]2[C@@H]3C[C@H](F)C4=CC(=O)C=C[C@]4(C)[C@@]3(F)[C@@H](O)C[C@]2(C)[C@@]1(O)C(=O)CO	0.909 ± 0.0093
CC(=O)OCC(=O)[C@@]1(O)[C@@H](C)C[C@H]2[C@@H]3CCC4=CC(=O)C=C[C@]4(C)[C@@]3(F)[C@@H](O)C[C@@]21C	1.01 ± 0.033
CN1CCN(C2=Nc3ccccc3Oc3ccc(Cl)cc32)CC1	1.08 ± 0.016
CC(C)CC(N)=O	0.914 ± 0.044
COc1c2occc2cc2ccc(=O)oc12	1.16 ± 0.073
NCc1ccccc1CC(=O)N[C@@H]1C(=O)N2C(C(=O)O)=C(CSc3nnnn3CC(=O)O)CS[C@H]12	1.14 ± 0.021
N=C(NCCCCCCNC(=N)NC(=N)Nc1ccc(Cl)cc1)NC(=N)Nc1ccc(Cl)cc1	0.997 ± 0.24
N#Cc1ccc(C(c2ccc(C#N)cc2)n2cncn2)cc1	0.907 ± 0.015
Clc1ccc(CCC(Cn2ccnc2)Sc2c(Cl)cccc2Cl)cc1 (stereo not given)	0.924 ± 0.024
C[N+]1(C)CCC(OC(=O)C(O)(c2ccccc2)C2CCCC2)C1 (stereo not given)	1.062 ± 0.0045
CN(C)CCCN1c2ccccc2Sc2ccc(C(F)(F)F)cc21	1.09 ± 0.027
CCCCC(O)c1ccccc1 (stereo not given)	0.984 ± 0.032
CC(N/C(=N\C#N)Nc1ccncc1)C(C)(C)C (stereo not given)	0.967 ± 0.059
CC1(C)OC(=O)C(OCC2CC2)=C1c1ccc(S(C)(=O)=O)cc1	1.13 ± 0.025
CCN(CC)CCOC(=O)C1(C2CCCCC2)CCCCC1	1.03 ± 0.043
CCCCOCCOCCOCc1cc2c(cc1CCC)OCO2	0.935 ± 0.043
Oc1cc(O)c2c(c1)O[C@H](c1ccc(O)c(O)c1)[C@@H](O)C2	1.04 ± 0.046
CC(=O)Oc1ccccc1C(=O)Nc1ncc([N+](=O)[O-])s1	1.14 ± 0.045
CO[C@H]1C[C@H](O[C@H]2[C@H](C)O[C@@H](O[C@@H]3/C(C)=C/C[C@@H]4C[C@@H](C[C@]5(C=C[C@H](C)[C@@H](C6CCCCC6)O5)O4)OC(=O)[C@@H]4C=C(C)[C@@H](O)[C@H]5OC/C(=C\C=C\[C@@H]3C)[C@]54O)C[C@@H]2OC)O[C@@H](C)[C@@H]1O	0.776 ± 0.03
O=C1c2c(O)cccc2Cc2cccc(O)c21	0.968 ± 0.033
CC[N+](C)(CC)CCOC(=O)C(O)(c1ccccc1)C1CCCCC1 (stereo not given)	1.1 ± 0.03

For reference, some entries already given:
Compound	normalized growth
CCCCOCCOCCOCc1cc2c(cc1CCC)OCO2	0.935 ± 0.043
Oc1cc(O)c2c(c1)O[C@H](c1ccc(O)c(O)c1)[C@@H](O)C2	1.04 ± 0.046
CC(=O)Oc1ccccc1C(=O)Nc1ncc([N+](=O)[O-])s1	1.14 ± 0.045
CO[C@H]1C[C@H](O[C@H]2[C@H](C)O[C@@H](O[C@@H]3/C(C)=C/C[C@@H]4C[C@@H](C[C@]5(C=C[C@H](C)[C@@H](C6CCCCC6)O5)O4)OC(=O)[C@@H]4C=C(C)[C@@H](O)[C@H]5OC/C(=C\C=C\[C@@H]3C)[C@]54O)C[C@@H]2OC)O[C@@H](C)[C@@H]1O	0.776 ± 0.03
O=C1c2c(O)cccc2Cc2cccc(O)c21	0.968 ± 0.033
